Some entries of the source have several records that differ or are many. The other results are left out here. There may be further records. The values listed for one entry differ for a reason that is not stated; some may be repeats, others may stem from another dose, organism or construct than stated.
Assay: Mouse pharmacokinetics, plasma BrP-LPA by HPLC-MS/MS
Conditions: 10 mg/kg i.p., female mice
Method: BrP-LPA, LPA species (C14:0, C16:0, C18:0, C18:1 and C20:4) and LPC species (C14:0, C16:0, C18:0, C18:1 and C20:0) were measured in plasma with HPLC-ESI/MS/MS using RSLCnano system (Ultimate 3000) coupled in-line with an LTQ Orbitrap XL mass spectrometer (Thermo Scientific, Waltham, MA, USA). BrP-LPA and lipid (LPA, LPC) extraction from plasma was performed on ice according to the Folch method with minor modifications. Plasma samples (50 ul) were mixed with 950 ul PBS prior to extraction and spiked with the internal standard mix (17:1 LPA/LPC). Samples were extracted under neutral conditions with 4 ml of ice-cold CHCl3/CH3OH (2/1, v/v) followed by 2 ml of PBS-saturated ice-cold CHCl3/CH3OH (2/1, v/v). Each extraction step was followed by a 60 s vortex and a 1 min centrifugation step in a bench-top clinical centrifuge in a cold room at 4°C at 3,000 rpm. The lower chloroform organic phases from both neutral extraction steps were pooled and kept for LPC measurement. […] The precursor ion mass was used for the quantification while lipid identity was confirmed by precursor ion fragmentation using collision induced dissociation (CID). […]
BrP-LPA was administered intraperitoneally (IP) at 10 mg/kg in water to 6–8 week old female mice. […] Plasma samples were then analysed for plasma ATX activity and BrP-LPA/LPA/LPC levels with the TOOS activity assay and HPLC-MS/MS respectively. […]

- tmax: one and 1 h
SMILES: CCCCCCCCCCCCCCCC(=O)OC[C@@H](O)CC(Br)P(=O)(O)O (stereo partly drawn) [BrP-LPA, 1-bromo-3(S)-hydroxy-4-(palmitoyloxy)butyl-phosphonate]

Source: PMC3726599, “A Metabolically-Stabilized Phosphonate Analog of Lysophosphatidic Acid Attenuates Collagen-Induced Arthritis” (PLoS ONE, 2013)
